Experimental data: PMC9491610
These are yes or no findings as the source states them, for the method shown. In cells and extracts the contact can be indirect. Some entries that bind do so weakly or less than the wild type.

Tests used:
Test in all cases: co-IP; Stu2-HA precipitated with anti-HA magnetic beads from 90 mg cryo-milled yeast extract in 1x PBS pH 7.4 with 0.1% Tween; precipitate blotted with anti γ-tubulin (anti-Tub4)
[1] = molecular target: T1, Stu2-K252,469,870R-3xHA (S. cerevisiae) (UniProt P46675)
T1 sequence: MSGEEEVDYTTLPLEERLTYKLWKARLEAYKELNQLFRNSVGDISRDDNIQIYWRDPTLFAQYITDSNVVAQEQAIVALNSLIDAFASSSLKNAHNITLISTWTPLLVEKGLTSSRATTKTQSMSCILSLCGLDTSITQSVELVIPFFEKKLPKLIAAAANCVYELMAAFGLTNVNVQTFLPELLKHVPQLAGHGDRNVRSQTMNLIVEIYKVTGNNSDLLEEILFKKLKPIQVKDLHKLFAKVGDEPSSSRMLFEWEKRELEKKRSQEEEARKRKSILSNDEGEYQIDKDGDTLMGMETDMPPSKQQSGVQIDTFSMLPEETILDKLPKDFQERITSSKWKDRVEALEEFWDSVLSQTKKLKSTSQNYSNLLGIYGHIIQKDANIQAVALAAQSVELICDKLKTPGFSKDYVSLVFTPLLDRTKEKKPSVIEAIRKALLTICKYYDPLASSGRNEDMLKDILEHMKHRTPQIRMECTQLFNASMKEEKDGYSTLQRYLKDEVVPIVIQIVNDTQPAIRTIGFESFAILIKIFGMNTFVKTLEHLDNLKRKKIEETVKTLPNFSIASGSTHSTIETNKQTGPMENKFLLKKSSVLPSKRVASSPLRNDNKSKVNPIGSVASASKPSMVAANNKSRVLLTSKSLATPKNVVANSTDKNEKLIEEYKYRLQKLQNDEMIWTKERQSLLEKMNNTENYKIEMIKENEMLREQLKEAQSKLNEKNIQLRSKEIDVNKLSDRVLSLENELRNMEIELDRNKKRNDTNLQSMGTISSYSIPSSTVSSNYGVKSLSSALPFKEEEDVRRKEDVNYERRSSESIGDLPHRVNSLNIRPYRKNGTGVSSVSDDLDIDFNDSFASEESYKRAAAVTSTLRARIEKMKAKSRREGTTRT

[2] = molecular target: T2, Stu2-K870Q-3xHA (S. cerevisiae) (UniProt P46675)
T2 sequence: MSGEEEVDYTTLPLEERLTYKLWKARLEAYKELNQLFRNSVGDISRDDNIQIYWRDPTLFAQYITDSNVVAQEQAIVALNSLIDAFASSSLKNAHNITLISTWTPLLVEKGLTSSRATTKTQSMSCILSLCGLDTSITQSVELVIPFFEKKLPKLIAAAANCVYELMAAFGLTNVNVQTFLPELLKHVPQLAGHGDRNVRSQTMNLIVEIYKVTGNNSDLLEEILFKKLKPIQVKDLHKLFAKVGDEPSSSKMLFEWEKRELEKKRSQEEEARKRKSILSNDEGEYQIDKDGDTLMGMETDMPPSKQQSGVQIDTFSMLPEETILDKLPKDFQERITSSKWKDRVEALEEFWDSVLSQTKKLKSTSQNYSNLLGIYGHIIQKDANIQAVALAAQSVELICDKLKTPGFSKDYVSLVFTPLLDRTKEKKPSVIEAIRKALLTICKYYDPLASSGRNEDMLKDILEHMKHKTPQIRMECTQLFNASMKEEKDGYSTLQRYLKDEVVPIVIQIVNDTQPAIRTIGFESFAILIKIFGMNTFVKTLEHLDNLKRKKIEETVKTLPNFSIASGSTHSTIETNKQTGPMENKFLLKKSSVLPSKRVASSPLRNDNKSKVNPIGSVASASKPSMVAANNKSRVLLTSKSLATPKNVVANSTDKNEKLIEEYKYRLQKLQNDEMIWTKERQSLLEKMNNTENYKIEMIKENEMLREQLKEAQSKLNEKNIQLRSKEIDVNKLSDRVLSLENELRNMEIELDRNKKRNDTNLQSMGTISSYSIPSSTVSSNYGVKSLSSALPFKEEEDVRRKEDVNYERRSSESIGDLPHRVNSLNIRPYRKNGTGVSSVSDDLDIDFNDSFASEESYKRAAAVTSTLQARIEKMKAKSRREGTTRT

[3] = molecular target: T3, Stu2-K870R-3xHA (S. cerevisiae) (UniProt P46675)
T3 sequence: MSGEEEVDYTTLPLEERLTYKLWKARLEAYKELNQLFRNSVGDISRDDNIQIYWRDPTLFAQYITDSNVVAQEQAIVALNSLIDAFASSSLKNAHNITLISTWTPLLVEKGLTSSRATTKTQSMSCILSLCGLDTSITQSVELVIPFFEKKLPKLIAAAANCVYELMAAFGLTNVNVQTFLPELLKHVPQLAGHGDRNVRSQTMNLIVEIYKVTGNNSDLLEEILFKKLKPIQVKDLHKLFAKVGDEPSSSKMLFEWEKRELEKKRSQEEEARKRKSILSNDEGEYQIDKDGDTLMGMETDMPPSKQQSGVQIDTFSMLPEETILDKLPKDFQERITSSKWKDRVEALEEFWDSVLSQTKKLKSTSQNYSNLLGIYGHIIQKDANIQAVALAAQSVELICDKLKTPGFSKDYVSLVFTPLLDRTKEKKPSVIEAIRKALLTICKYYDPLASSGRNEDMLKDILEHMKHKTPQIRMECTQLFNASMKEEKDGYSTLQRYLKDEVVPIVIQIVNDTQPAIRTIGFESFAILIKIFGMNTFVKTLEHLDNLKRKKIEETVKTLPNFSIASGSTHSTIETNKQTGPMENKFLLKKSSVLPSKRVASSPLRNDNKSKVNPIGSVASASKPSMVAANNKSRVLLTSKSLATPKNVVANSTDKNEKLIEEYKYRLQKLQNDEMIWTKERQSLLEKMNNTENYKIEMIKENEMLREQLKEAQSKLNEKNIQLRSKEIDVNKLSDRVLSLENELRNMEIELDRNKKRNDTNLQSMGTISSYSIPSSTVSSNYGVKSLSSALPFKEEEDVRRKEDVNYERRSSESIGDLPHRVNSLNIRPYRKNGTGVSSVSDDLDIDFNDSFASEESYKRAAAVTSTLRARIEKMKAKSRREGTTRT

Measured: binding

B1: γ-tubulin (Tub4) (protein, UniProt P53378 1-473)
chain: MGGEIITLQAGQCGNHVGKFLWSQLAKEHAIGTDGLSQLPDSSTERDDDTKPFFRENSRNKFTPRAIMMDSEPSVIADVENTFRGFFDPRNTWVASDGASAGNSWANGYDIGTRNQDDILNKIDKEIDSTDNFEGFQLLHSVAGGTGSGLGSNLLEALCDRYPKKILTTYSVFPARSSEVVVQSYNTILALRRLIEDSDATVVFDNASLLNISGKVFRNPNIDLQHTNQLISTIISSVTNSIRFPSYMYSSMSSIYSTLIPSPELHFLSPSFTPFTSDYIHDDIAHKGHSSYDVMLDLLDPSNSLVSTAMNNPTYFNVYNTIIGNVEPRQISRAMTKLQQRIKFPSWSSSAMHVNIGRRSPYLPLQPNENEVSGMMLSNMSTVVNVFENACNTFDKVFAKGAFLNNYNVGDLFQSMQNVQDEFAESREVVQSLMEDYVAAEQDSYLDDVLVDDENMVGELEEDLDADGDHKLV
binds: [1] | [2] | [3]
